Results reported in US20180352814A1 (priority 2015, published 2018).
Some of these results come from one statement about several compounds together. At least one structure is not confirmed: it was looked up by name or label, or the drawing left a doubt.

System: tomato leaf mold fungus (Cladosporium Fulvum), QoI-resistant strain
Type: cell-based
Settings: 1 μL of 1,500 ppm dimethyl sulfoxide dilution + 150 μL PDB medium with spores; QoI-resistant strain (cytochrome b position 129 phenylalanine to leucine); 18° C. for 5 days

SMILES | degree of growth (absorbance at 550 nm) in treated area relative to that in a non-treated area
C#CCN(C)C(=O)Oc1ccc(-c2noc(C(F)(F)F)n2)cc1 [compound 10] | ≤ 30%
CN(C(=O)Oc1ccc(-c2noc(C(F)(F)F)n2)c(F)c1)C1CCCCC1 [compound 17] | ≤ 30%
CN(C(=O)Oc1ccc(-c2noc(C(F)(F)F)n2)c(F)c1)C1CC1 [compound 18] | ≤ 30%
CN(C(=O)Oc1cccc(-c2noc(C(F)(F)F)n2)c1)C1CC1 [compound 21] | ≤ 30%
COCCN(C)C(=O)Nc1ccc(-c2noc(C(F)(F)F)n2)cc1 [compound 29] | ≤ 30%
CN(CC#N)C(=O)Nc1ccc(-c2noc(C(F)(F)F)n2)cc1 [compound 30] | ≤ 30%
COCC(=O)Nc1ccc(-c2noc(C(F)(F)F)n2)cc1 [compound 33] | ≤ 30%
O=C(Nc1ccc(-c2noc(C(F)(F)F)n2)cc1)C1CC1 [compound 35] | ≤ 30%
N#CC1(C(=O)Nc2ccc(-c3noc(C(F)(F)F)n3)cc2)CC1 [compound 36] | ≤ 30%
CC1(C(=O)Nc2ccc(-c3noc(C(F)(F)F)n3)cc2)CCCCC1 [compound 39] | ≤ 30%
CC1(C(=O)Nc2ccc(-c3noc(C(F)(F)F)n3)cc2)CC1 [compound 41] | ≤ 30%
